Data: PubChem BioAssay AID504467 (National Center for Advancing Translational Sciences (NCATS), 2011)
Hit rate of the full screen: of about 330,000 compounds, about 7,700 (2.3%) were called active. Inconclusive results, whose numbers are uncertain, are shown with a selection of clear calls. The call rests on the fitted dose curve; in most records, active means well fitted inhibition curve with a large enough effect; inconclusive means small, poorly fitted or top-dose-only effect, or effect the other way; inactive means flat fitted curve, though single readings scatter. A potency beside an inconclusive call is a rough fit, not a confirmed value.
On the % scale 0 is the no-effect control and ±100 the full control effect; potency means the concentration at half of the fitted maximal effect.

Assay: qHTS screen for small molecules that inhibit ELG1-dependent DNA repair in human embryonic kidney (HEK293T) cells expressing luciferase-tagged ELG1; further: nearly all actives have a fitted effect of over 55% in size
Details: HEK293T ELG1-luciferase reporter, luminescence, 16 h, DNA damage induced by 5-fluorouridine; activity change, negative = inhibition: at 46.1 µM (top of the series)
Outline: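 In this reporter screen, reduction of luminescence relative to DMSO vehicle indicated activity. Compounds and 5-fluorouridine were added together to 2,000 cells per well, incubated for 16 hr at 37 °C, then developed with ONE-Glo.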
With `O=C(COc1ccc2c(-c3ccccc3)cc(=O)oc2c1)Nc1ccc(CN2CCOCC2)cc1` the “activity change, negative = inhibition” value was inactive: -0.999%.
In the case of `Cc1ccc(S(=O)(=O)Nc2ccc(Cl)cc2C(=O)c2ccc(F)cc2)cc1`, the “activity change, negative = inhibition” value is reported as inactive: -23.3%.
For `Cc1cccc(C(=O)Nc2nc(C)c(C(=O)Nc3ccc4c(c3)CCC4)s2)c1`, the Potency was inconclusive: 3.66 µM [activator, partial curve].
With `O=C(Nc1ccc2c(c1)OCCO2)c1cnccn1` the Potency was inconclusive: 6.51 µM [activator, partial curve].
For `CCC(=C(c1ccc(OC)cc1)c1ccc(OC)cc1)c1cn(CC(O)CN(CCO)CCO)c2ccccc12` (stereo unspecified), the Potency was inconclusive: 16.4 µM [inhibitor, single point].
For `Cn1nc(-c2ccc(C(=O)NCCO)cc2)c2ccccc2c1=O`, the Potency was inconclusive: 23.1 µM [activator, partial curve].
For `Cc1onc(-c2ccccc2)c1-c1nnc(COC(=O)c2ccc(O)cc2)o1`, the Potency was inconclusive: 14.6 µM [inhibitor, partial curve].
For `CC(C)CCSc1cc(NCCO)c([N+](=O)[O-])c2nonc12`, the Potency was inconclusive: 20.6 µM [inhibitor, single point].
For `O=C(Nc1ccc(F)cc1)C1CCN(S(=O)(=O)c2ccc3[nH]c(=O)oc3c2)CC1`, the Potency was inconclusive: 18.3 µM [activator, single point].
With `O=C(Nc1ccc(N2CCN(Cc3ccccc3F)CC2)cc1)c1ccc([N+](=O)[O-])o1` the Potency was active: 2.59 µM.
With `O=C(COC(=O)/C=C/c1ccc(F)cc1)NCc1ccco1` the “activity change, negative = inhibition” value was inactive: 0.263%.
In the case of `C=CCN1C(=O)C(Cc2ccccc2Cl)SC1=Nc1ccc(C(=O)O)cc1` (stereo unspecified), the Potency is reported as inconclusive: 18.3 µM [inhibitor, single point].
In the case of `CC(C)(CN1CCC(Cc2ccccc2)CC1)NS(=O)(=O)c1ccccc1`, the Potency is reported as inconclusive: 29.1 µM [inhibitor, single point].
In the case of `CCN(CC)S(=O)(=O)c1ccc(NC(=O)CSc2nnc(-c3cccc(OC)c3)n2C)cc1`, the Potency is reported as inconclusive: 16.4 µM [inhibitor, single point].
In the case of `CCOC(=O)c1c(NC(=O)CN2CCCc3ccccc32)sc(C)c1C`, the Potency is reported as inconclusive: 25.9 µM [activator, single point].
For `Cc1nnc(SCC(=O)N(C(C)C)C(C)C)[nH]c1=O`, the Potency was inconclusive: 25.9 µM [inhibitor, partial curve, poor fit].
In the case of `Cc1cccc(NC(=S)N/N=C/c2cccc([N+](=O)[O-])c2)c1`, the “activity change, negative = inhibition” value is reported as inactive: -26.6%.
For `CC(C)(C)OC(=O)NCCCCCc1cn(CC(=O)NCCCCCCCCCCC(=O)N2CCN(C(=O)OC(C)(C)C)CC2)nn1`, the “activity change, negative = inhibition” value was inactive: -20.2%.
For `C=CCn1c(-c2cccc(Cl)c2)n[nH]c1=S`, the “activity change, negative = inhibition” value was inactive: 2.39%.
With `Cn1c(C(C)(O)C(O)c2ccccc2)nc2ccccc21` (stereo unspecified) the “activity change, negative = inhibition” value was inactive: -0.681%.
In the case of `COc1cccc(C(=O)Nc2ccc(N3CCCC3)cc2)c1`, the Potency is reported as inconclusive: 9.2 µM [activator, partial curve].
With `N=c1c2ccccc2nnn1-c1ccc(C(F)(F)F)cc1` the Potency was inconclusive: 32.6 µM [activator, single point].
With `CC(NS(=O)(=O)c1ccc(Cl)cc1)C(=O)OCC(=O)Nc1ccc(N(C)C)cc1` (stereo unspecified) the Potency was inconclusive: 25.9 µM [activator, single point].
In the case of `COc1cc(OC)c(OC)cc1/C=N/NC(=O)C[n+]1ccccc1`, the Potency is reported as inconclusive: 8.2 µM [inhibitor, partial curve].
In the case of `CC(C)Nc1nnc(SCC(=O)/C=C2\N(C)c3ccccc3C2(C)C)s1`, the Potency is reported as inconclusive: 32.6 µM [inhibitor, single point].
With `CCOC(=O)[C@@H]1[C@H]2COc3cc(OC)ccc3[C@H]2N2C(=O)N(c3ccc(Cl)cc3)C(=O)[C@]12C` the Potency was inconclusive: 14.6 µM [inhibitor, partial curve].
For `Cc1cccc2cc(C#N)c(SCC(=O)N3CC(=O)Nc4ccccc43)nc12`, the Potency was inconclusive: 20.6 µM [inhibitor, single point].
For `CCC(=O)NC(c1ccccc1)c1c(OC(C)=O)ccc2ccccc12` (stereo unspecified), the “activity change, negative = inhibition” value was inactive: 12.4%.
For `Cc1sc2nc(C3CC3)nc(SCC(=O)N3CCCc4ccccc43)c2c1C`, the Potency was inconclusive: 20.6 µM [inhibitor, partial curve, poor fit].
For `O=C(C1CCN(S(=O)(=O)c2cccnc2)CC1)N1CCN(c2cccc(Cl)c2)CC1`, the Potency was active: 20.6 µM.
For `O=C(CN1C2=NCCCN2c2ccccc21)c1cccc(Br)c1`, the Potency was inconclusive: 32.6 µM [inhibitor, partial curve, poor fit].
With `c1ccc(-c2nnsc2-c2ncc[nH]2)cc1` the “activity change, negative = inhibition” value was inactive: 1.95%.
For `S=C(Nc1ccc(Br)cc1)Nc1ccc2c(c1)OCCO2`, the Potency was inconclusive: 23.1 µM [activator, partial curve].
With `Cc1nc(C)c(-c2csc(Nc3ncccc3C)n2)s1` the Potency was inconclusive: 5.01 µM [activator, single point].
In the case of `Cc1ccc(NS(=O)(=O)c2cc(C(=O)N3CCc4ccccc4C3)ccc2Cl)cc1`, the Potency is reported as inconclusive: 1.16 µM [activator, single point].
With `CCO[C@H]1c2c(ccc3ccc(=O)oc23)OC(C)(C)[C@H]1O` the “activity change, negative = inhibition” value was inactive: 10.8%.
In the case of `CCOC(=O)CSc1nc2ccccc2n2cnnc12`, the activity change, negative = inhibition is reported as inconclusive: 12.6% [activator].
In the case of `CC1CCC2(CC1)NC(=O)N(CC(=O)Nc1sc3c(c1C(N)=O)CCC3)C2=O` (stereo unspecified), the “activity change, negative = inhibition” value is reported as inactive: 10%.
For `CCCn1c(SCC(=O)Nc2nnc(-c3ccccc3)s2)nnc1-c1ccccn1`, the “activity change, negative = inhibition” value was inactive: 0%.
With `CCCCn1c(=O)[nH]c(=O)c2c1nc(CN(C)Cc1cccc(OC)c1OC)n2CCC` the Potency was inconclusive: 25.9 µM [inhibitor, partial curve, poor fit].
For `c1ccc(NCc2ccccn2)cc1`, the Potency was inconclusive: 23.1 µM [activator, single point].
In the case of `COc1cc(-c2cc(C(=O)Nc3ccc(S(=O)(=O)Nc4ncccn4)cc3)c3ccccc3n2)cc(OC)c1OC`, the “activity change, negative = inhibition” value is reported as inactive: -15.1%.
For `CCCCSc1nc2ccccc2[nH]1`, the Potency was inconclusive: 20.6 µM [activator, partial curve].
In the case of `CC1(C)CC(=O)N(c2ccc(Cl)c(Cl)c2)C(=O)C1`, the “activity change, negative = inhibition” value is reported as inactive: -11.1%.
For `CCN(CC)S(=O)(=O)c1ccc(N2CCN(S(=O)(=O)c3ccccc3)CC2)nc1`, the Potency was inconclusive: 7.3 µM [inhibitor, partial curve].
With `COc1ccc(NC(=O)COC(=O)C2CCN(S(=O)(=O)c3cccs3)CC2)cc1OC` the “activity change, negative = inhibition” value was inactive: 1.38%.
In the case of `COc1ccccc1OCC(=O)Nc1cc(C)ccc1NC(=O)c1ccco1`, the Potency is reported as inconclusive: 11.6 µM [inhibitor, partial curve, poor fit].
With `Cn1c(SCc2ccon2)nc2ccccc2c1=O` the “activity change, negative = inhibition” value was inactive: -10.6%.
With `COc1ccc(Nc2ncnc3sc(-c4ccccc4)cc23)c(OC)c1` the “activity change, negative = inhibition” value was inactive: -10.3%.
With `CCOc1ncccc1C(=O)OCC(=O)N(CC(C)C)C1CCS(=O)(=O)C1` (stereo unspecified) the “activity change, negative = inhibition” value was inactive: 11.6%.
In the case of `C=CCn1c(N2CCN(c3ccc(OC)cc3)CC2)nc2c1c(=O)[nH]c(=O)n2C`, the Potency is reported as inconclusive: 20.6 µM [inhibitor, partial curve, poor fit].
In the case of `CCN1C(=O)/C(=C/c2ccc(OC)c(OC)c2)N=C1SCC(=O)NCc1ccco1`, the Potency is reported as inconclusive: 29.1 µM [inhibitor, single point].
For `Cc1cc2nc(-c3ccc4c(c3)CCC4)ccn2n1`, the Potency was inconclusive: 20.6 µM [activator, single point].
In the case of `OCCN1CCN(C(=S)NCCc2ccccc2)CC1`, the Potency is reported as inconclusive: 13 µM [activator, partial curve].
With `c1ccc(COc2ccc(OCCCN3CCCCC3)cc2)cc1` the Potency was inconclusive: 9.2 µM [activator, partial curve].
With `COc1ccc(CN2C(=O)C(O)(CC(=O)c3ccc4c(c3)OCO4)c3ccccc32)cc1OC` (stereo unspecified) the Potency was inconclusive: 23.1 µM [inhibitor, single point].
For `Nc1ccc(-c2cc(N)n(-c3ccccc3)n2)cc1`, the “activity change, negative = inhibition” value was inactive: 12.3%.
For `COCCCNc1ncnc2c1nc1n2CCCC1`, the “activity change, negative = inhibition” value was inactive: -3.25%.
In the case of `COc1ccc(C2NC(=S)NC3=C2N2CCC3CC2)cc1` (stereo unspecified), the Potency is reported as inconclusive: 11.6 µM [activator, partial curve].
With `COc1cc(C2Oc3ccccc3C=C2[N+](=O)[O-])cc(OC)c1OC` (stereo unspecified) the Potency was inconclusive: 29.1 µM [inhibitor, single point].
In the case of `COc1ccc(NC(=O)c2ccc3c(c2)OCO3)cc1`, the Potency is reported as inconclusive: 3.26 µM [activator, partial curve].
In the case of `O=C(NCCCn1ccnc1)C(=O)NCC(c1cccnc1)N1CCN(c2ccc(F)cc2)CC1` (stereo unspecified), the “activity change, negative = inhibition” value is reported as inactive: -0.692%.
For `CC(C)(C)C(=O)Oc1ccc2cc(-c3ccc4ccccc4n3)c(=O)oc2c1`, the Potency was inconclusive: 9.2 µM [activator, partial curve].
In the case of `CCn1c(SCC(=O)N2c3ccccc3CCc3ccccc32)nnc1-c1ccc(OC)cc1`, the Potency is reported as inconclusive: 18.4 µM [inhibitor, single point].
For `Cc1ccc(OCC(=O)N(Cc2cccc(Cl)c2)C2CCS(=O)(=O)C2)cc1C` (stereo unspecified), the Potency was inconclusive: 29.1 µM [inhibitor, single point].
With `Cc1cc(Cl)ccc1OCc1n[nH]c(=S)n1C1CCCCC1` the “activity change, negative = inhibition” value was inactive: 6.13%.
In the case of `O=C(Cn1nnc2ccccc21)c1ccc(Cl)cc1`, the Potency is reported as inconclusive: 29.1 µM [activator, single point].
In the case of `O=C(c1cc(COc2ccc(F)cc2Cl)on1)N1CCN(C2CCCCC2)C(=O)C1`, the “activity change, negative = inhibition” value is reported as inactive: 18.3%.
In the case of `CSc1nc2nc3c(c(=O)n2[nH]1)CCCC3`, the Potency is reported as inconclusive: 18.4 µM [activator, partial curve, poor fit].
For `COc1ccc(C(=O)/C=C/c2ccc(OC3CSC3)cc2)cc1OC`, the “activity change, negative = inhibition” value was inactive: 16%.
With `CCOc1ccccc1NC(=O)c1ccc(Cl)c(NC(=O)CC(c2ccccc2)c2ccccc2)c1` the “activity change, negative = inhibition” value was inactive: -8.94%.
